From doi:10.1101/2024.04.26.591336

The chains behind the UniProt entries cited, without tags or fusion partners. Where a name states a change or a piece, a line headed by the entry shows the natural chain unless it says otherwise. Residues count along the entry.
UniProt Q04721, residues 26-2471: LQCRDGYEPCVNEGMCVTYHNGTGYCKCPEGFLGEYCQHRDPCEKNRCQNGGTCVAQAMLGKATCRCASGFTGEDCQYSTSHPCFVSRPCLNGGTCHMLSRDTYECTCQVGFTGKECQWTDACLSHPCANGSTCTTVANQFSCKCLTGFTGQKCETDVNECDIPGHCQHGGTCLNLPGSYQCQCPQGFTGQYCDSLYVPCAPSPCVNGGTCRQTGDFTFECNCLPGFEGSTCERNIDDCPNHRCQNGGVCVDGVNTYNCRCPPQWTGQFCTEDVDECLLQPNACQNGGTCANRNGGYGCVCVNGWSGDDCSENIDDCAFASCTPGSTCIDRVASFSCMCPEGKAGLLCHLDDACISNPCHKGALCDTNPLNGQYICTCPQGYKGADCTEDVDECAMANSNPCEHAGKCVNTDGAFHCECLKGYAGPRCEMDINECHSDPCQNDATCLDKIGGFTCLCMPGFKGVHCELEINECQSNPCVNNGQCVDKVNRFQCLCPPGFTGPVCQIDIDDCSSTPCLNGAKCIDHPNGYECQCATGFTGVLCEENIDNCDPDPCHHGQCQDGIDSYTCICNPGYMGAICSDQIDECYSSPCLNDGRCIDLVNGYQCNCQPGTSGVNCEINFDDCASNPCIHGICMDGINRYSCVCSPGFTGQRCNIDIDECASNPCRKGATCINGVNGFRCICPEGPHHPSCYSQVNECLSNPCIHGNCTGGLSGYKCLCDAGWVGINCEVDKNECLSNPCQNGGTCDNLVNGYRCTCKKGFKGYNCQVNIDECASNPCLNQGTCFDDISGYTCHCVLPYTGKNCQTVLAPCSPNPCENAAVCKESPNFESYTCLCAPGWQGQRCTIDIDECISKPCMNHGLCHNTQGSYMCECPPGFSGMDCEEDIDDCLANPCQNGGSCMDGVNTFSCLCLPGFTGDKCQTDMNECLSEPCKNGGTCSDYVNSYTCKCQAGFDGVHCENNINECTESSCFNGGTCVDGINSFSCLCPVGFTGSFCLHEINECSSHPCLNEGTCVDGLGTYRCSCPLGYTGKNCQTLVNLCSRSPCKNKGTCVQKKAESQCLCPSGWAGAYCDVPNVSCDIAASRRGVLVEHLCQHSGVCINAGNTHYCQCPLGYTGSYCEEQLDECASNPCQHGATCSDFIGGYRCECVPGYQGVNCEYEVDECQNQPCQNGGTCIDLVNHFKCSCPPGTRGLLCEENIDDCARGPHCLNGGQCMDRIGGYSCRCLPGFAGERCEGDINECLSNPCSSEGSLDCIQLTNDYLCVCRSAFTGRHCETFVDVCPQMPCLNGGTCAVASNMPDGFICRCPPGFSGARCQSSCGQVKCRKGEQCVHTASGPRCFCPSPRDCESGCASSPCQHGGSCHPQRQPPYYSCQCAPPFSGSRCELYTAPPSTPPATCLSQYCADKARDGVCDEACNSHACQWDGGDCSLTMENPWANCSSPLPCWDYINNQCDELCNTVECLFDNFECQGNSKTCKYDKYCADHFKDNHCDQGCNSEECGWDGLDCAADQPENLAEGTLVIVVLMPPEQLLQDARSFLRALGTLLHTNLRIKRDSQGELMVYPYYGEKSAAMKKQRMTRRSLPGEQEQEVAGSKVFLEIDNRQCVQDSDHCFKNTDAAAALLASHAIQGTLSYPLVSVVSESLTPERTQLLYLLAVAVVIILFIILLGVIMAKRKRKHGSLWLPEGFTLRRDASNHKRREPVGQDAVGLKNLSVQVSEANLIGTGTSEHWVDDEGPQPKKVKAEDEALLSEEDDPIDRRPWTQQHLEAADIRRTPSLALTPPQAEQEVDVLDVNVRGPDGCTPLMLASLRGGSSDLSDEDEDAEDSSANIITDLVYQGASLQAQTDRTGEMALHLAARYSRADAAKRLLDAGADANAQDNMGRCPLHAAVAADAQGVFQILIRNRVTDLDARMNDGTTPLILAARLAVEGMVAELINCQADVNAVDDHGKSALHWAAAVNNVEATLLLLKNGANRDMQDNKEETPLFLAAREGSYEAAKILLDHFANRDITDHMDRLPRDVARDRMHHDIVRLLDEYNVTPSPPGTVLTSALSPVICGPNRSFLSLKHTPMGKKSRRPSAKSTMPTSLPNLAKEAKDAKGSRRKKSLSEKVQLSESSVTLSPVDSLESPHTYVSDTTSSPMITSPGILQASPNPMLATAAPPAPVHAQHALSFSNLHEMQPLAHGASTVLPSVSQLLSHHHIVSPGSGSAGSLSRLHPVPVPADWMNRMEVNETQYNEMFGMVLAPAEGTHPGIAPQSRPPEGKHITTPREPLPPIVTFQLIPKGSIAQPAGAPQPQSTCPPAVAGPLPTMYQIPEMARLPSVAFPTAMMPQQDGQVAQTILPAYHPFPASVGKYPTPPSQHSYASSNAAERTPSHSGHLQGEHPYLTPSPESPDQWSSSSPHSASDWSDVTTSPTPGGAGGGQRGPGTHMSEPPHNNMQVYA
UniProt Q15648: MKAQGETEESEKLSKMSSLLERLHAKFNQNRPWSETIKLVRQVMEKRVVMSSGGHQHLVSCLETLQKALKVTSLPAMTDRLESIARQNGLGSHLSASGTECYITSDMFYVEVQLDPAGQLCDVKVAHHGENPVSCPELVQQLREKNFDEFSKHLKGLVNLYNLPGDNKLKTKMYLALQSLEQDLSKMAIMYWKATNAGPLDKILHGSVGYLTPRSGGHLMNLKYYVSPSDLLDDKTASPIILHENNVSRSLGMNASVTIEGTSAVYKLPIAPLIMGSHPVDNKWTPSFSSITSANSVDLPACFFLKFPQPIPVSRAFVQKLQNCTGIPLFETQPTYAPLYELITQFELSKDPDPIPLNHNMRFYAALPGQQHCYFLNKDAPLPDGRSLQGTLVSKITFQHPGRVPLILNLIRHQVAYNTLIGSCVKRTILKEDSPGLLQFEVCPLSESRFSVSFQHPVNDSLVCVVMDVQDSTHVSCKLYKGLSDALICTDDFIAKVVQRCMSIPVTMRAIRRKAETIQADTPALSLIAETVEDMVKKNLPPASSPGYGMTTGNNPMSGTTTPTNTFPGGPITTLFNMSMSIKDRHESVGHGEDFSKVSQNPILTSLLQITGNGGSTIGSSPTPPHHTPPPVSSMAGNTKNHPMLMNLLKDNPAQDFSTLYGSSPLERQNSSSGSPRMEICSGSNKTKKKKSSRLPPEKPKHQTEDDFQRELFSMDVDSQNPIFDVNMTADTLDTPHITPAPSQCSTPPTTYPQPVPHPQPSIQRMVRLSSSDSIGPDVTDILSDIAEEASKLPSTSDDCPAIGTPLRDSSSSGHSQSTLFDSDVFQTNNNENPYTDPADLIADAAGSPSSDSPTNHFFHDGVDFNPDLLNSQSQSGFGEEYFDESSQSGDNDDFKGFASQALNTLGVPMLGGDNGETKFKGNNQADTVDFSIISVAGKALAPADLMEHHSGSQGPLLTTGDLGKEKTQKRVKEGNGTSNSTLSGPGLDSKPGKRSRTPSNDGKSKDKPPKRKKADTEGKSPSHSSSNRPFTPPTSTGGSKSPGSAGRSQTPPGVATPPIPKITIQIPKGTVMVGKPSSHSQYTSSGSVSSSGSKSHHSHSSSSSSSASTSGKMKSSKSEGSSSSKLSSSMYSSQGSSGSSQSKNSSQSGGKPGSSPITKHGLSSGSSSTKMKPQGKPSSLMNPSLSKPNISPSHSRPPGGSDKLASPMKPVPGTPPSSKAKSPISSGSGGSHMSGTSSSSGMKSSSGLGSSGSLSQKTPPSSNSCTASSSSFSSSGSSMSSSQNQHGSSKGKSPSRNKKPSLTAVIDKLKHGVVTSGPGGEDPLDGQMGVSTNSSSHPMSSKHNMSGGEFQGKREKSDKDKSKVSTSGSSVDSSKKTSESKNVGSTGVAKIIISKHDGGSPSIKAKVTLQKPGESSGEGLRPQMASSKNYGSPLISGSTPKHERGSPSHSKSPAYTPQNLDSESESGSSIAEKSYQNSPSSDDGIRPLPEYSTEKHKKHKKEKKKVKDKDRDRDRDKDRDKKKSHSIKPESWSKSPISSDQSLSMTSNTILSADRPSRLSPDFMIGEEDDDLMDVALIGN
UniProt Q92585: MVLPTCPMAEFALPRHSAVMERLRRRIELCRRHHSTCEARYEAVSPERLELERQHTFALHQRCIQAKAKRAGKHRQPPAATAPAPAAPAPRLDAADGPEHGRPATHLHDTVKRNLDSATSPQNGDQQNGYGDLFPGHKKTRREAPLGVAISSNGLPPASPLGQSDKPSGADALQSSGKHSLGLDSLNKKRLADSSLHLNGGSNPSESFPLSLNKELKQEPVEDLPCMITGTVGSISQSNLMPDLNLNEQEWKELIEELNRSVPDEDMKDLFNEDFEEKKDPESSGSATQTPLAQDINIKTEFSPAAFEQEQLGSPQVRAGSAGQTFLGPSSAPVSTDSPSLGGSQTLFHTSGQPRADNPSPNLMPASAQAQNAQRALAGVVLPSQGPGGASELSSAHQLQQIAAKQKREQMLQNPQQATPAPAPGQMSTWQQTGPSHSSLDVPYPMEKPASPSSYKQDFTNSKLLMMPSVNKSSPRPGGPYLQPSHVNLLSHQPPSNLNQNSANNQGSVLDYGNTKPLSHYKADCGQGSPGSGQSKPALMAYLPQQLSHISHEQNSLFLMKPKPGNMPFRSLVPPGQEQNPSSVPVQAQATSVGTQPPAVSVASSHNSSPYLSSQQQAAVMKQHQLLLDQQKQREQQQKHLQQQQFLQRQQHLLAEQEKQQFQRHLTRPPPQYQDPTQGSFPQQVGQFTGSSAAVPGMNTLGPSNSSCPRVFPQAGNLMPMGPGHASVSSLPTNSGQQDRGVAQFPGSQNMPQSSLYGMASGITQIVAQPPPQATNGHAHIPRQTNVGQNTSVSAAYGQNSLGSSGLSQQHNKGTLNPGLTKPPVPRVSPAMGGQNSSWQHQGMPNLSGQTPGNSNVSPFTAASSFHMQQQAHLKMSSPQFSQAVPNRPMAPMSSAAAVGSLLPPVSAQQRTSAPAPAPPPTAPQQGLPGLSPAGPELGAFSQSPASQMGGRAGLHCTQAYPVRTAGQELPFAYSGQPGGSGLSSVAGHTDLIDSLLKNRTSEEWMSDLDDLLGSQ
UniProt Q06330: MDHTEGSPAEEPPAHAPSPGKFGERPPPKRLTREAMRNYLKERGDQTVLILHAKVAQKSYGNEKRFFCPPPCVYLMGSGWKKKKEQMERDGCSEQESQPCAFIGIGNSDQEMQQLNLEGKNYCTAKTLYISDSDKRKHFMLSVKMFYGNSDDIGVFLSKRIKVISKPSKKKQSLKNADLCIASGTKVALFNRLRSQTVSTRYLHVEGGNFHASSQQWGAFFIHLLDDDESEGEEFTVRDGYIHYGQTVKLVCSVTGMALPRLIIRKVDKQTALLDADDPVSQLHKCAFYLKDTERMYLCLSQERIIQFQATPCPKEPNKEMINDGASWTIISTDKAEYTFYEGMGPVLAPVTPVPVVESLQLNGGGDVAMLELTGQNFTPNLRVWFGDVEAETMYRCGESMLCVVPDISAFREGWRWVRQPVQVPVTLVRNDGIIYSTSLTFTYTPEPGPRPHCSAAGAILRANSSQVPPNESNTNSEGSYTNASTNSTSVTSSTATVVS
UniProt P42224: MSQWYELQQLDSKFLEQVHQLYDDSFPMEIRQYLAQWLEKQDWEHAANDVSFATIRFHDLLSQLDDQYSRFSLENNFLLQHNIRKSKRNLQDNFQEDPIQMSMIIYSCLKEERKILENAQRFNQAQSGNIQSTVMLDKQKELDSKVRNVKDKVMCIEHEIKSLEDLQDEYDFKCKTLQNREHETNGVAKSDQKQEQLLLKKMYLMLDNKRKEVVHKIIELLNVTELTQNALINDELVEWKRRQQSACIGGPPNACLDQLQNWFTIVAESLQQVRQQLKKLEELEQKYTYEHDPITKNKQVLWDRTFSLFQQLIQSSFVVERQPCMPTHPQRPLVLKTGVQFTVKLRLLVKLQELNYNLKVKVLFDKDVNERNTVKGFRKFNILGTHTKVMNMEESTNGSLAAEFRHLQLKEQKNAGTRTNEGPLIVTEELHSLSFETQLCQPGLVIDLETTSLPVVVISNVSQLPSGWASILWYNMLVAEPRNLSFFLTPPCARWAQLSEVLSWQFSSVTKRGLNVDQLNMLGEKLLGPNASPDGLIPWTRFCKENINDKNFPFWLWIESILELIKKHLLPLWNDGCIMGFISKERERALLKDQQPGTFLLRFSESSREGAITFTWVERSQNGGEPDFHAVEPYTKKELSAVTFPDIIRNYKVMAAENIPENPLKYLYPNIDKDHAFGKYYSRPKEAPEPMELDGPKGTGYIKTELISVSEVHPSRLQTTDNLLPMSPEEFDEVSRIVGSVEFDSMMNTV

How the values were obtained:
Experiment in all cases: proximity labelling
[1] = target: NOTCH2^ΔE-TurboID (human) (UniProt Q04721)
[2] = target: NOTCH2^ΔE-TurboID (human) (UniProt Q04721); remark: listed apart in the source
[3] = target: NOTCH2^ΔE-TurboID (human) (UniProt Q04721); remark: listed apart in the source
[4] = target: NOTCH2^ΔERA-TurboID (human)

Row | Molecule | binding [1] | binding [2] | binding [3] | binding [4]
1 | CDK8 (from UniProt P49336 1-464) | no binding | – | – | –
2 | MED1 (from UniProt Q15648 1-1581) | binds | – | – | –
3 | MAML1 (from UniProt Q92585 1-1016) | binds | – | – | –
4 | SPEN (from UniProt Q96T58 1-3664) | no binding | – | – | –
5 | RBPj (from UniProt Q06330 1-500) | binds | – | – | –
6 | PARP4 (from UniProt Q9UKK3 1-1724) | binds | – | – | –
7 | MED13 (from UniProt Q9UHV7 1-2174) | binds | – | – | –
8 | Stat1 (from UniProt P42224 1-750) | binds | – | – | –
9 | endogenous human NOTCH2 (from UniProt Q04721 26-2471) | binds | binds | – | –
10 | TP53BP1 (from UniProt Q12888 1-1972) | binds | – | – | –
11 | MED9 (protein, UniProt Q9NWA0 1-146) MASAGVAAGRQAEDVLPPTSDQPLPDTKPLPPPQPPPVPAPQPQQSPAPRPQSPARAREEENYSFLPLVHNIIKCMDKDSPEVHQDLNALKSKFQEMRKLISTMPGIHLSPEQQQQQLQSLREQVRTKNELLQKYKSLCMFEIPKE | – | – | binds | binds
12 | TXNIP (protein, UniProt Q9H3M7 1-391) MVMFKKIKSFEVVFNDPEKVYGSGEKVAGRVIVEVCEVTRVKAVRILACGVAKVLWMQGSQQCKQTSEYLRYEDTLLLEDQPTGENEMVIMRPGNKYEYKFGFELPQGPLGTSFKGKYGCVDYWVKAFLDRPSQPTQETKKNFEVVDLVDVNTPDLMAPVSAKKEKKVSCMFIPDGRVSVSARIDRKGFCEGDEISIHADFENTCSRIVVPKAAIVARHTYLANGQTKVLTQKLSSVRGNHIISGTCASWRGKSLRVQKIRPSILGCNILRVEYSLLIYVSVPGSKKVILDLPLVIGSRSGLSSRTSSMASRTSSEMSWVDLNIPDTPEAPPCYMDVIPEDHRLESPTTPLLDDMDGSQDSPIFMYAPEFKFMPPPTYTEVDPCILNNNVQ | – | – | binds | binds
13 | MED8 (protein, UniProt Q96G25 1-268) MQREEKQLEASLDALLSQVADLKNSLGSFICKLENEYGRLTWPSVLDSFALLSGQLNTLNKVLKHEKTPLFRNQVIIPLVLSPDRDEDLMRQTEGRVPVFSHEVVPDHLRTKPDPEVEEQEKQLTTDAARIGADAAQKQIQSLNKMCSNLLEKISKEERESESGGLRPNKQTFNPTDTNALVAAVAFGKGLSNWRPSGSSGPGQAGQPGAGTILAGTSGLQQVQMAGAPSQQQPMLSGVQMAQAGQPGKMPSGIKTNIKSASMHPYQR | – | – | binds | binds
14 | MED10 (protein, UniProt Q9BTT4 1-135) MAEKFDHLEEHLEKFVENIRQLGIIVSDFQPSSQAGLNQKLNFIVTGLQDIDKCRQQLHDITVPLEVFEYIDQGRNPQLYTKECLERALAKNEQVKGKIDTMKKFKSLLIQELSKVFPEDMAKYRSIRGEDHPPS | – | – | binds | binds
15 | MED17 (protein, UniProt Q9NVC6 1-651) MSGVRAVRISIESACEKQVHEVGLDGTETYLPPLSMSQNLARLAQRIDFSQGSGSEEEEAAGTEGDAQEWPGAGSSADQDDEEGVVKFQPSLWPWDSVRNNLRSALTEMCVLYDVLSIVRDKKFMTLDPVSQDALPPKQNPQTLQLISKKKSLAGAAQILLKGAERLTKSVTENQENKLQRDFNSELLRLRQHWKLRKVGDKILGDLSYRSAGSLFPHHGTFEVIKNTDLDLDKKIPEDYCPLDVQIPSDLEGSAYIKVSIQKQAPDIGDLGTVNLFKRPLPKSKPGSPHWQTKLEAAQNVLLCKEIFAQLSREAVQIKSQVPHIVVKNQIISQPFPSLQLSISLCHSSNDKKSQKFATEKQCPEDHLYVLEHNLHLLIREFHKQTLSSIMMPHPASAPFGHKRMRLSGPQAFDKNEINSLQSSEGLLEKIIKQAKHIFLRSRAAATIDSLASRIEDPQIQAHWSNINDVYESSVKVLITSQGYEQICKSIQLQLNIGVEQIRVVHRDGRVITLSYQEQELQDFLLSQMSQHQVHAVQQLAKVMGWQVLSFSNHVGLGPIESIGNASAITVASPSGDYAISVRNGPESGSKIMVQFPRNQCKDLPKSDVLQDNKWSHLRGPFKEVQWNKMEGRNFVYKMELLMSALSPCLL | – | – | binds | binds
16 | MED20 (protein, UniProt Q9H944 1-212) MGVTCVSQMPVAEGKSVQQTVELLTRKLEMLGAEKQGTFCVDCETYHTAASTLGSQGQTGKLMYVMHNSEYPLSCFALFENGPCLIADTNFDVLMVKLKGFFQSAKASKIETRGTRYQYCDFLVKVGTVTMGPSARGISVEVEYGPCVVASDCWSLLLEFLQSFLGSHTPGAPAVFGNRHDAVYGPADTMVQYMELFNKIRKQQQVPVAGIR | – | – | binds | binds
17 | MED25 (protein, UniProt Q71SY5 1-747) MVPGSEGPARAGSVVADVVFVIEGTANLGPYFEGLRKHYLLPAIEYFNGGPPAETDFGGDYGGTQYSLVVFNTVDCAPESYVQCHAPTSSAYEFVTWLDGIKFMGGGGESCSLIAEGLSTALQLFDDFKKMREQIGQTHRVCLLICNSPPYLLPAVESTTYSGCTTENLVQQIGERGIHFSIVSPRKLPALRLLFEKAAPPALLEPLQPPTDVSQDPRHMVLVRGLVLPVGGGSAPGPLQSKQPVPLPPAAPSGATLSAAPQQPLPPVPPQYQVPGNLSAAQVAAQNAVEAAKNQKAGLGPRFSPITPLQQAAPGVGPPFSQAPAPQLPPGPPGAPKPPPASQPSLVSTVAPGSGLAPTAQPGAPSMAGTVAPGGVSGPSPAQLGAPALGGQQSVSNKLLAWSGVLEWQEKPKPASVDANTKLTRSLPCQVYVNHGENLKTEQWPQKLIMQLIPQQLLTTLGPLFRNSRMVQFHFTNKDLESLKGLYRIMGNGFAGCVHFPHTAPCEVRVLMLLYSSKKKIFMGLIPYDQSGFVNGIRQVITNHKQVQQQKLEQQQRGMGGQQAPPGLGPILEDQARPSQNLLQLRPPQPQPQGTVGASGATGQPQPQGTAQPPPGAPQGPPGAASGPPPPGPILRPQNPGANPQLRSLLLNPPPPQTGVPPPQASLHHLQPPGAPALLPPPHQGLGQPQLGPPLLHPPPAQSWPAQLPPRAPLPGQMLLSGGPRGPVPQPGLQPSVMEDDILMDLI | – | – | binds | binds
18 | MED26 (protein, UniProt O95402 1-600) MTAAPASPQQIRDRLLQAIDPQSNIRNMVAVLEVISSLEKYPITKEALEETRLGKLINDVRKKTKNEELAKRAKKLLRSWQKLIEPAHQHEAALRGLAGATGSANGGAHNCRPEVGAAGPPRSIHDLKSRNDLQRLPGQRLDRLGSRKRRGDQRDLGHPGPPPKVSKASHDPLVPNSSPLPTNGISGSPESFASSLDGSGHAGPEGSRLERDENDKHSGKIPVNAVRPHTSSPGLGKPPGPCLQPKASVLQQLDRVDETPGPPHPKGPPRCSFSPRNSRHEGSFARQQSLYAPKGSVPSPSPRPQALDATQVPSPLPLAQPSTPPVRRLELLPSAESPVCWLEQPESHQRLAGPGCKAGLSPAEPLLSRAGFSPDSSKADSDAASSGGSDSKKKKRYRPRDYTVNLDGQVAEAGVKPVRLKERKLTFDPMTRQIKPLTQKEPVRADSPVHMEQQSRTELDKQEAKASLQSPFEQTNWKELSRNEIIQSYLSRQSSLLSSSGAQTPGAHHFMSEYLKQEESTRQGARQLHVLVPQSPPTDLPGLTREVTQDDLDRIQASQWPGVNGCQDTQGNWYDWTQCISLDPHGDDGRLNILPYVCLD | – | – | binds | binds
19 | CCNC (protein, UniProt P24863 1-283) MAGNFWQSSHYLQWILDKQDLLKERQKDLKFLSEEEYWKLQIFFTNVIQALGEHLKLRQQVIATATVYFKRFYARYSLKSIDPVLMAPTCVFLASKVEEFGVVSNTRLIAAATSVLKTRFSYAFPKEFPYRMNHILECEFYLLELMDCCLIVYHPYRPLLQYVQDMGQEDMLLPLAWRIVNDTYRTDLCLLYPPFMIALACLHVACVVQQKDARQWFAELSVDMEKILEIIRVILKLYEQWKNFDERKEMATILSKMPKPKPPPNSEGEQGPNGSQNSSYSQS | – | – | no binding | no binding

Like-named read-outs stand apart in the source and are kept apart here. No constants are given. Whether binding was seen depends on the method and setting. Binding seen in cells or lysates may run through a third protein. A yes stands for co-enrichment or nearness to the bait. Other partners may have been found. For some assays here: A no says only that the protein was not detected with the bait.
